Test results taken from patent EP4606382A1, “INHIBITORS OF TANGO1 ACTIVITY AND METHODS OF USE THEREOF” (Fundació Centre de Regulació Genòmica, priority 2024, dated 2025).
Not every detail of the peptide structures is certain; ends, links or a residue may be inferred. Ends that are not written are not given here. Peptide text beside a SMILES is read from it.

How the values were obtained:
[1] = test system: Snail mouse model of scleroderma; assay: Snail mouse model of scleroderma, skin thickening (P1 vs. P6); type: in vivo; settings: Snail mice; 10 µM s.c., 4 weeks with 2-3 days interval
U2OS cells = assay: Immunofluorescence imaging of intracellular collagen I; type: cell-based; settings: 100µM each, ascorbate, colocalized with Calnexin
TANGO1 = assay: Western blotting of TANGO1 levels in peptide-treated U2OS cell lysates; type: cell-based; settings: U2OS cells, P2 100µM, P5 100µM, P2+P5 100µM each
[2] = test system: TANGO1-CC2-cTAGE5-CC2 hetero-dimerization; assay: NanoBRET assay of TANGO1-CC2/cTAGE5-CC2 interaction in live cells; type: cell-based; settings: HEK293T cells expressing Halo-TANGO1-CC2 and NanoLuc-cTAGE5-CC2; peptide 0-200µM
cTAGE5 = assay: Western blotting of cTAGE5 levels in peptide-treated U2OS cell lysates; type: cell-based; settings: U2OS cells, P2 100µM, P5 100µM, P2+P5 100µM each

Molecule | thickening of the skin [1] | intracellular collagen I (U2OS cells) | TANGO1 protein levels (TANGO1) | emitted fluorescence (NanoBRET) [2] | cTAGE5 protein levels (cTAGE5)
CC(C)C[C@H](NC(=O)CN)C(=O)N[C@@H](CCCNC(=N)N)C(=O)N[C@@H](CCCCN)C(=O)N[C@@H](CCCNC(=N)N)C(=O)N[C@@H](CC(C)C)C(=O)N[C@@H](CCCNC(=N)N)C(=O)N[C@@H](CCCCN)C(=O)N[C@@H](Cc1ccccc1)C(=O)N[C@@H](CCCNC(=N)N)C(=O)N[C@@H](CC(N)=O)C(=O)N[C@@H](CCCCN)C(N)=O [Peptide P6, GLRKRLRKFRNK, reference compound] (H-GLRKRLRKFRNK-NH2) | less pronounced effect | – | – | – | –
LEKEEKLSKVDEKISHATEELETYRKRAKDLGLRKRLRKFRNK-NH2 [Peptide P5] | – | increased collagen I | reduced | reduced the emitted fluorescence | reduced
LRQKVEILNELYQQKEMALQKKLSQEEYERGLRKRLRKFRNK-NH2 [Peptide P2] | – | increased collagen I | reduced | reduced the emitted fluorescence | reduced
MILSDEAIKYKDKIKTLEKNQEILDDTAKNGLRKRLRKFRNK-NH2 [Peptide P1] | effectively reduced thickening of the skin | – | – | – | –
